The supplement of paper PMC10060354, “Discovery of a small molecule ligand of FRS2 that inhibits invasion and tumor growth” (Cellular Oncology, 2022)

Sequences of proteins named here, by UniProt entry; tags and fusion partners are left off. A change or cut given only in a name is not applied to a line headed by its entry.
UniProt Q9P0U1: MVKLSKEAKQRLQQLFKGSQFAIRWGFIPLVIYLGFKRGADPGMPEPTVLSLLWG
UniProt Q9BX79: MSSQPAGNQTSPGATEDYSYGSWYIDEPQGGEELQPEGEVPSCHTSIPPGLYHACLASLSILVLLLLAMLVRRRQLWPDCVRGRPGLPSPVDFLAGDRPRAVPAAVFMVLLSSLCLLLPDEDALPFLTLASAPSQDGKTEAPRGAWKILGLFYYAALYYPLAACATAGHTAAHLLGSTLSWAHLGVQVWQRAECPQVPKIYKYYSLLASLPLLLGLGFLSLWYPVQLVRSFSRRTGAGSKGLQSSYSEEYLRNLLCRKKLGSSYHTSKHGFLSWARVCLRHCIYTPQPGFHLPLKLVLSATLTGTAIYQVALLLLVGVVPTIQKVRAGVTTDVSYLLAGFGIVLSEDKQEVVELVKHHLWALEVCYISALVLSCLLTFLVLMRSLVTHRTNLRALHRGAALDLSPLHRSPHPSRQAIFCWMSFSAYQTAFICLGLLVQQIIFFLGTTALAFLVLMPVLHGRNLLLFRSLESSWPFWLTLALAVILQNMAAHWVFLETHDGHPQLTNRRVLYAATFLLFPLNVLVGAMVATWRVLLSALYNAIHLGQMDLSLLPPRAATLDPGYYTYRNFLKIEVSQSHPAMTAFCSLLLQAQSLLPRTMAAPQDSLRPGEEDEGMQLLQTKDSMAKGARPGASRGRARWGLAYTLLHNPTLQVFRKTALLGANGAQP
UniProt Q5JU69: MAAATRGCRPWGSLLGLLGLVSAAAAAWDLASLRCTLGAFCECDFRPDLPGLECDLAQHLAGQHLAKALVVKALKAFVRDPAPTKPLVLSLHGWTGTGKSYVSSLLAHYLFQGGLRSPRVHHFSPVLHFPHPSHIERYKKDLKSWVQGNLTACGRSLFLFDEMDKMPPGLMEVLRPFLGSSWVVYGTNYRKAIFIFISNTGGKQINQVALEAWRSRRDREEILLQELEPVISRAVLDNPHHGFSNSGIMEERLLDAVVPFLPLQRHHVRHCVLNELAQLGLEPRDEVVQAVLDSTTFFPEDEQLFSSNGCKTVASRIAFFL
UniProt Q9UMY4: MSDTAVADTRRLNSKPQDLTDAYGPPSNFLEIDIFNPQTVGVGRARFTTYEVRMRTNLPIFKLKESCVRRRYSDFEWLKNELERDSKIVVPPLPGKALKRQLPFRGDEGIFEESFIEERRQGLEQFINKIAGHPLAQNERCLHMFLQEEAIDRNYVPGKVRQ
UniProt O60733: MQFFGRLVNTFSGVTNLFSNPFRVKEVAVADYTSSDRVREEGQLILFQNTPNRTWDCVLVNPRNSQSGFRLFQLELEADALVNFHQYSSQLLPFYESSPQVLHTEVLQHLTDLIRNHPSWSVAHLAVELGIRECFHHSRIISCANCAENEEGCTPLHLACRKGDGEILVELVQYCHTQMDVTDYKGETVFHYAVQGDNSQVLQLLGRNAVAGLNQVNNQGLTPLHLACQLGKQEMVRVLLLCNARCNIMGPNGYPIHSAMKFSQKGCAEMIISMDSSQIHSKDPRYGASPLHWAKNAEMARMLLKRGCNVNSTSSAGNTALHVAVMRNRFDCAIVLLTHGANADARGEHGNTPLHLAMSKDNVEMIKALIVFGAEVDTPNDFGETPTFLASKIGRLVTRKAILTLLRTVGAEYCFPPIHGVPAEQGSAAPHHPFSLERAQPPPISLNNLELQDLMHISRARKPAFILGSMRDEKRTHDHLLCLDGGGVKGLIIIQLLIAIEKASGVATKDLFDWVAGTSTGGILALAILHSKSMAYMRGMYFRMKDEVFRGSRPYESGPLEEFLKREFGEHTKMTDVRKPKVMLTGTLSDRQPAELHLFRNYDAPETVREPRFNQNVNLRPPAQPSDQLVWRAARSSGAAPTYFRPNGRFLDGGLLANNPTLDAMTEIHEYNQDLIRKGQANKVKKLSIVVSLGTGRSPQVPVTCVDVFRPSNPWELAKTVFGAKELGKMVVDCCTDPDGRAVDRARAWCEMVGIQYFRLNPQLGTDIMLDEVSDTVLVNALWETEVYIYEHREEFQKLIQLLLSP
UniProt P85037: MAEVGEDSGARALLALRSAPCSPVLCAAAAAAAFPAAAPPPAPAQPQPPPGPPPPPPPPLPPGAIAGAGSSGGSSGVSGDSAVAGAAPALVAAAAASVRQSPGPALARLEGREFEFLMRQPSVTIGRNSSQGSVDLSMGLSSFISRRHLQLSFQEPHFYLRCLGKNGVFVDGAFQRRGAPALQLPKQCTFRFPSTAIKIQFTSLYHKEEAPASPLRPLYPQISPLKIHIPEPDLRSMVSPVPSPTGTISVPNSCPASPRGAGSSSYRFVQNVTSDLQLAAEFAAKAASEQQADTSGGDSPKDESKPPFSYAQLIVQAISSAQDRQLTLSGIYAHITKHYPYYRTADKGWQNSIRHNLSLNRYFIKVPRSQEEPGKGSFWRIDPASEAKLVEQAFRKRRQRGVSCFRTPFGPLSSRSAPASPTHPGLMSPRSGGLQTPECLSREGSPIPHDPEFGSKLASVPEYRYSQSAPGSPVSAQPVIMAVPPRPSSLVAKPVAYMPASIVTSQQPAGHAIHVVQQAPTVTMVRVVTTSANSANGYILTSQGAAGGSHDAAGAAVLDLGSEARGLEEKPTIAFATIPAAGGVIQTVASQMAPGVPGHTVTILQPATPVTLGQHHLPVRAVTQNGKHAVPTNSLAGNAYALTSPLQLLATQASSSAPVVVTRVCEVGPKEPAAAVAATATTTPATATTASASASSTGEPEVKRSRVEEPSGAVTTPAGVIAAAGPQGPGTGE
UniProt Q7Z4W1: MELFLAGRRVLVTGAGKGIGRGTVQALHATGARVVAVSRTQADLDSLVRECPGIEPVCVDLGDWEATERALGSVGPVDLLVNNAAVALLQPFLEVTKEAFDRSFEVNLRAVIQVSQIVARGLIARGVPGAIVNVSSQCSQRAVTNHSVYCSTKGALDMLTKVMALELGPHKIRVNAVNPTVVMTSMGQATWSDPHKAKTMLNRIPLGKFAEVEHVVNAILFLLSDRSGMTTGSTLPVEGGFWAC
UniProt Q9NYL4: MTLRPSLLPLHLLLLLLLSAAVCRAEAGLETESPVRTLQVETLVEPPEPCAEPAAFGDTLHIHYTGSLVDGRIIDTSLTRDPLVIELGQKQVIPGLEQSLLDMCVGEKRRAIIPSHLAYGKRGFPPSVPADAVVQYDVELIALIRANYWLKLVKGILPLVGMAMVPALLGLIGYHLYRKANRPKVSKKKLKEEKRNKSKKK
UniProt P25786: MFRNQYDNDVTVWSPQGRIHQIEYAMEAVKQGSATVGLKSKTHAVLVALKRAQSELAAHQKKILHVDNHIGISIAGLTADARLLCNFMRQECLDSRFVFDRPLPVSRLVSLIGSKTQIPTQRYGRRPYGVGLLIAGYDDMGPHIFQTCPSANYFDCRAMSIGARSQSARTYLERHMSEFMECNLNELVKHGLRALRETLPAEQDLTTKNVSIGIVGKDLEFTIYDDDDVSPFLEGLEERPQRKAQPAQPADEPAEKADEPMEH
UniProt Q8TAA3: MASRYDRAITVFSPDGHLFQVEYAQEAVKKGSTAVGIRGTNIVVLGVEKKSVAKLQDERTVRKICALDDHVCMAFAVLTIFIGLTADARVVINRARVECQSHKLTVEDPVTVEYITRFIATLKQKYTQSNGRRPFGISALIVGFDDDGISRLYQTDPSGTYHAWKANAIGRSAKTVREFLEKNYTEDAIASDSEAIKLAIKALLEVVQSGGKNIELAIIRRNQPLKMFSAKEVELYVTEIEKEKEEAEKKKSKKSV
UniProt O43353, whole entry: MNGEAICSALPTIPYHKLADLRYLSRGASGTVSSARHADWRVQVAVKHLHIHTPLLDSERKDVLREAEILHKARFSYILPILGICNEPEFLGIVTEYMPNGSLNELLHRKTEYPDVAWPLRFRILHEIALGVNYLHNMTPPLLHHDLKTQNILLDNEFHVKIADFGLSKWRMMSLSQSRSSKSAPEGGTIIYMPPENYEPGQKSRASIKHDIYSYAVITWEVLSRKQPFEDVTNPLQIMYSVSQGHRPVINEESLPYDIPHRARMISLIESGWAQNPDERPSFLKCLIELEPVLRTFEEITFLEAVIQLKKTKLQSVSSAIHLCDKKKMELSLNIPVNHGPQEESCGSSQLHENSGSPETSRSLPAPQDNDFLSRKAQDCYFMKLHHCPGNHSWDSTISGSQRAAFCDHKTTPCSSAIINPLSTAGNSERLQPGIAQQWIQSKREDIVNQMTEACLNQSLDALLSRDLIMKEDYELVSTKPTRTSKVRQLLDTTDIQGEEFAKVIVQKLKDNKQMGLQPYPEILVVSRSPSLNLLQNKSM
UniProt Q9NY93: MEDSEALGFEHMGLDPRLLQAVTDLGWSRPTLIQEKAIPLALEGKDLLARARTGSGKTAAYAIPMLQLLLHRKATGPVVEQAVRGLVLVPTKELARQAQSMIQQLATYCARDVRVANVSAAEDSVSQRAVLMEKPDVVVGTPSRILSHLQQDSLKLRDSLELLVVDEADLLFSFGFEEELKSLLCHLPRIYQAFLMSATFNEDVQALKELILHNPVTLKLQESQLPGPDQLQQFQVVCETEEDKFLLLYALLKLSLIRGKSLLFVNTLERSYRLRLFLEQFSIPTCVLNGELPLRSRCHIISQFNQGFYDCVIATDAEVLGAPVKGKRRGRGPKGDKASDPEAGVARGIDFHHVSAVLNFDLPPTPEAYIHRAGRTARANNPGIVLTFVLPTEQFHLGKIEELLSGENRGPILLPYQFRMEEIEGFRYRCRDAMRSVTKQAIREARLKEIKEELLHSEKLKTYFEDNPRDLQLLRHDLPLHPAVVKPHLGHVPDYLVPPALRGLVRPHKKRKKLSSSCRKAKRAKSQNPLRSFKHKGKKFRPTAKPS
UniProt Q8WVB6, whole entry: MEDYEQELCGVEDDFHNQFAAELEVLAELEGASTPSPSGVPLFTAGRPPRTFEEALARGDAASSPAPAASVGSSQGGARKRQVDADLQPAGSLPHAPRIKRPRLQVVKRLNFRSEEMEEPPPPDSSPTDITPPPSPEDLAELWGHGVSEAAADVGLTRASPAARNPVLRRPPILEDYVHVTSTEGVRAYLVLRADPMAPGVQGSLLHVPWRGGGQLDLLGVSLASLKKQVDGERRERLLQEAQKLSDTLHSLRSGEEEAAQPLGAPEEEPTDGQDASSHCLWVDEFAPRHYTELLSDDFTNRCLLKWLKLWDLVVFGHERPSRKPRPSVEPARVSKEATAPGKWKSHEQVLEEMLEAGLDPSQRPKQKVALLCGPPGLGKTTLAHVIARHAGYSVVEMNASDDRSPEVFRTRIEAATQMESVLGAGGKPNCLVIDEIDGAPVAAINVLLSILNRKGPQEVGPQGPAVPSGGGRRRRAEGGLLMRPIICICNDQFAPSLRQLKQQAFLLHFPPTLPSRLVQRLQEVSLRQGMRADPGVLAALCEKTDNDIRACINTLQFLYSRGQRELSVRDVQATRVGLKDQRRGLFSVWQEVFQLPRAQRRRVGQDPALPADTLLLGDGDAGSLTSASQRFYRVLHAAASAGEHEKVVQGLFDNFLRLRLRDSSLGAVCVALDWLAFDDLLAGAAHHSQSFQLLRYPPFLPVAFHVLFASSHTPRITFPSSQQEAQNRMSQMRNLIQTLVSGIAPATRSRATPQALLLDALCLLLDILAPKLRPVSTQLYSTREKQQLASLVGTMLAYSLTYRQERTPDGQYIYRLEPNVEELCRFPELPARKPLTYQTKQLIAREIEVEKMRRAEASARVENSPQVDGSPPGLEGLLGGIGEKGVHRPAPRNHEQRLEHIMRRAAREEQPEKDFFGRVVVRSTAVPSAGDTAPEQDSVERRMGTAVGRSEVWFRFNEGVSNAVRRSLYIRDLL
UniProt P56381: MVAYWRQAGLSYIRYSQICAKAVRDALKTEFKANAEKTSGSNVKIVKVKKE
UniProt Q96PD2: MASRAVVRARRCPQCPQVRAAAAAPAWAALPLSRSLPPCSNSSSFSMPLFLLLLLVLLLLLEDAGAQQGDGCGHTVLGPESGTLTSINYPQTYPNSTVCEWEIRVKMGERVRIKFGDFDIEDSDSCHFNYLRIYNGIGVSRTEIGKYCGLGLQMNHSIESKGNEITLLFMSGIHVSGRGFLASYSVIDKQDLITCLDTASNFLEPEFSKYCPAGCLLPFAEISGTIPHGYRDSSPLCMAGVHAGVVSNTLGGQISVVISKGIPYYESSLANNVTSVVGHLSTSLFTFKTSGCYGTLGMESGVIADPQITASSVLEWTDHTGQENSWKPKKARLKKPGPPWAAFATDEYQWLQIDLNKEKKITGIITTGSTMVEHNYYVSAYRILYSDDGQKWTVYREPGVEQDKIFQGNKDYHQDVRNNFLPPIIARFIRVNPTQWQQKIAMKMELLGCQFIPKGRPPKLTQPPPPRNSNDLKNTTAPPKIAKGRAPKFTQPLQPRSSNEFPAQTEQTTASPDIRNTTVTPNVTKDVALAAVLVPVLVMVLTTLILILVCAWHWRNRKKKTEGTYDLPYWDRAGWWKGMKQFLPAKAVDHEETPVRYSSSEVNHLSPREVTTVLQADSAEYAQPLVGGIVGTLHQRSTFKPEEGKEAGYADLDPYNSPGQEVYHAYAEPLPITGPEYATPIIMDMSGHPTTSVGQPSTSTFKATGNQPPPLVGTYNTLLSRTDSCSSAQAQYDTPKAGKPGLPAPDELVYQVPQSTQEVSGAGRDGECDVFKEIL

Compound: [O-][N+](C(C1=C(C(O)=C2)NC(C(C=C3)=CC=C3Cl)C4C1C=CC4)=C2Cl)=O
Test: melting temperature shift (compound 7 minus DMSO); higher = compound stabilises the protein
Conditions: 10 µM
Procedure: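 Thermal proteome profiling (TMT mass spectrometry) in intact DAOY medulloblastoma cells or DAOY lysates treated with 10 µM compound 7 or DMSO, heated at 10 temperatures from 40.5 to 73.8 °C for 3 min. Melting curves were fitted with the Bioconductor TPP package, and the melting point difference between compound and vehicle is reported per protein (single curve per condition).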

[1] = system: intact DAOY cells, treatment time: 90 min, 37 °C
[2] = system: DAOY cell lysate, treatment time: 20 min, 4 °C

Target | melting temperature shift [1] [°C] | melting temperature shift [2] [°C]
MTG1 (UniProt Q9BT17) | -1.39 | –
UniProt Q86V88 | 0.0507 | -1.1
RPS2 (UniProt P15880) | -0.835 | -0.282
NDUFAB1 (UniProt O14561) | -2.26 | 3.32
TNNI3K (UniProt Q59H18) | -1.81 | –
UniProt P19525 | -0.0981 | -0.4
FAM136A (UniProt Q96C01) | – | 0.811
UniProt Q9BS16 | – | -2.38
NPEPL1 (UniProt Q8NDH3) | -0.91 | -0.664
DNPH1 (UniProt O43598) | 0.744 | -1.17
YBX1 (UniProt P67809) | – | 0.538
UniProt Q7Z3E5 | -1.21 | -1.31
SUPT5H (UniProt O00267) | 0.0854 | -0.027
PRKD2 (UniProt Q9BZL6) | – | 0.0239
ERGIC2 (UniProt Q96RQ1) | -2.59 | 0.516
UniProt Q9P0U1 | -0.71 | 1.53
KTI12 (UniProt Q96EK9) | -1.18 | 0.707
UniProt Q969X1 | 6.85 | –
C1GALT1 (UniProt Q9NS00) | – | 0.175
UniProt Q9NPH2 | – | -0.157
UniProt Q9BX79 | – | 4.14
ERCC2 (UniProt P18074) | 0.496 | -1.67
UniProt Q5JU69 | -0.636 | –
EXOSC10 (UniProt Q01780) | 0.202 | -0.253

Look-ups from the results shown.
PRKD2 (UniProt Q9BZL6) – melting temperature shift [2] [°C]: 0.0239
TNNI3K (UniProt Q59H18) – melting temperature shift [1] [°C]: -1.81
MTG1 (UniProt Q9BT17) – melting temperature shift [1] [°C]: -1.39
YBX1 (UniProt P67809) – melting temperature shift [2] [°C]: 0.538
UniProt Q969X1 – melting temperature shift [1] [°C]: 6.85
UniProt Q5JU69 – melting temperature shift [1] [°C]: -0.636
NDUFAB1 (UniProt O14561) – melting temperature shift [2] [°C]: 3.32

Next part

Target | melting temperature shift [1] [°C] | melting temperature shift [2] [°C]
UniProt O95399 | -0.178 | –
UniProt Q92993 | – | 0.912
UniProt Q9Y5I4 | 0.78 | –
NFYA (UniProt P23511) | -0.407 | 0.03
AHCYL2 (UniProt Q96HN2) | -3.59 | 2.02
UniProt Q9UGU0 | -0.45 | 3.43
LDHB (UniProt P07195) | -0.6 | -0.296
BNIP1 (UniProt Q12981) | -0.739 | 2.15
FPGS (UniProt Q05932) | – | 3.09
MOV10 (UniProt Q9HCE1) | 0.261 | -0.325
PARL (UniProt Q9H300) | -0.13 | 1.49
SNX12 (UniProt Q9UMY4) | -0.557 | -0.398
IAH1 (UniProt Q2TAA2) | 0.378 | –
PPFIBP1 (UniProt Q86W92) | 0.891 | -0.317
UniProt Q7Z6J8 | -0.249 | -0.607
TRIM47 (UniProt Q96LD4) | 1.12 | -0.85
LIG3 (UniProt P49916) | -0.215 | -0.676
UniProt O60733 | -0.544 | –
UniProt P07947 | 0.599 | 1.94
FOXK1 (UniProt P85037) | -1.47 | 0.0897
UniProt Q9ULC8 | 0.237 | –
UniProt Q5VZM2 | 1.37 | –
RPS6 (UniProt P62753) | -0.767 | 0.764
UniProt Q8WWZ3 | – | -2.2

Target | melting temperature shift [1] [°C] | melting temperature shift [2] [°C]
ECT2 (UniProt Q9H8V3) | 2.11 | -0.922
SDSL (UniProt Q96GA7) | -2.39 | 0.0842
UniProt P32247 | -2.31 | –
DCXR (UniProt Q7Z4W1) | -0.39 | 0.167
MTMR1 (UniProt Q13613) | -1.49 | -0.71
UniProt Q9P1U1 | 0.116 | –
ZFYVE19 (UniProt Q96K21) | -0.685 | -1.4
TOR1AIP1 (UniProt Q5JTV8) | -0.29 | 0.973
SURF4 (UniProt O15260) | -1.34 | 1.63
ULK3 (UniProt Q6PHR2) | – | -0.755
PPIP5K1 (UniProt Q6PFW1) | – | -2.02
CAV1 (UniProt Q03135) | – | 0.0974
UniProt Q9NYL4 | -1.15 | 1.09
LCLAT1 (UniProt Q6UWP7) | -1.09 | 1.12
CDC34 (UniProt P49427) | 0.145 | -0.612
PNPO (UniProt Q9NVS9) | 1.62 | 0.00691
PRMT7 (UniProt Q9NVM4) | – | -0.0233
UniProt P05937 | 0.178 | –
RBBP4 (UniProt Q09028) | 1.49 | 0.228
TARDBP (UniProt Q13148) | -0.0878 | –
NFYC (UniProt Q13952) | -0.324 | -0.216
RBM22 (UniProt Q9NW64) | -0.796 | 0.42
PSMA1 (UniProt P25786) | -0.75 | -0.0317
CYCS (UniProt P99999) | -4.74 | -0.236

Target | melting temperature shift [1] [°C] | melting temperature shift [2] [°C]
STAT2 (UniProt P52630) | -1.85 | -0.026
DIS3L2 (UniProt Q8IYB7) | 1.45 | -2.33
HPS6 (UniProt Q86YV9) | – | -2.12
SLC12A4 (UniProt Q9UP95) | -0.351 | -0.418
CAMK1 (UniProt Q14012) | -1.05 | –
PRMT3 (UniProt O60678) | -0.198 | -0.764
PCCA (UniProt P05165) | -1.37 | –
UniProt Q8TAA3 | -0.268 | –
PDS5B (UniProt Q9NTI5) | -0.714 | -0.288
RIPK2 (UniProt O43353) | -0.583 | 1.1
DDX56 (UniProt Q9NY93) | -0.235 | 0.084
CHTF18 (UniProt Q8WVB6) | – | -1.66
EPS15L1 (UniProt Q9UBC2) | 0.259 | -0.154
ATP5E (UniProt P56381) | -0.89 | 2.28
SAMM50 (UniProt Q9Y512) | 0.305 | 1.12
KIFC1 (UniProt Q9BW19) | 0.377 | -1.4
ANLN (UniProt Q9NQW6) | -0.406 | -0.0871
UniProt O94817 | 0.309 | 0.417
EIF1AD (UniProt Q8N9N8) | 1.36 | -2.68
PDZD8 (UniProt Q8NEN9) | -0.0566 | –
DCBLD2 (UniProt Q96PD2) | – | -2.79
UniProt Q9Y297 | -1.65 | –

Single values are uncertain, as repeats are few or missing.
